This passage reports binding results from PMC10908866.

The chains behind the UniProt entries cited, without tags or fusion partners. Residues count along the entry.
UniProt Q14244, residues 59-170: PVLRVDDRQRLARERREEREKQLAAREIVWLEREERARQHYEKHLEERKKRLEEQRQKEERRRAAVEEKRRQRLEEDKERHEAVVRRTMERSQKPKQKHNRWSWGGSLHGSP

No constants are given. Whether binding was seen depends on the method and setting. Some entries that bind do so weakly or less than the wild type.

Assay [1] addresses MAP7 microtubule-binding domain (MTBD), residues 59-170 (human) (UniProt Q14244). As to the kind of experiment: NMR titration; increasing stoichiometric ratios of CTT peptide added to 80 µM [13C-15N] MAP7 MTBD; 1H-15N TROSY, 298 K, 900 MHz; 40 mM NaPi pH 6.5, 150 mM NaCl, 1 mM DTT; both purified.
The target is the same in assay [2]. As to the kind of experiment: NMR titration; [13C-15N] MAP7 MTBD with 10-fold α-CTT at 500 mM salt (series of salt concentrations); both purified.

B1: β-tubulin C-terminal tail peptide, residues Asp 427-Ala 444 of HeLa S3 β-tubulin (peptide)
peptide: DATAEEEEDFGEEAEEEA
Regarding B1, the binding result in assay [1] is listed as “binds weakly”.

B2: α-tubulin C-terminal tail peptide, residues Ser 439-Tyr 451 of HeLa S3 α-tubulin (peptide)
peptide: SVEGEGEEEGEEY
Take B2: the binding entry in assay [2] is recorded as “no binding (condition: 500 mM salt)”; in assay [1], “binds weakly”.
